Laboratory results reported in patent US20070071746A1, “C/CLP antagonists and methods of use thereof” (MEDIMMUNE, INC., priority 2005, published 2007).
Results are given in words; binding and its absence hold for the method and conditions named.

The chains behind the UniProt entries cited, without tags or fusion partners. Where a name states a change or a piece, a line headed by the entry shows the natural chain unless it says otherwise.
UniProt Q9BZP6: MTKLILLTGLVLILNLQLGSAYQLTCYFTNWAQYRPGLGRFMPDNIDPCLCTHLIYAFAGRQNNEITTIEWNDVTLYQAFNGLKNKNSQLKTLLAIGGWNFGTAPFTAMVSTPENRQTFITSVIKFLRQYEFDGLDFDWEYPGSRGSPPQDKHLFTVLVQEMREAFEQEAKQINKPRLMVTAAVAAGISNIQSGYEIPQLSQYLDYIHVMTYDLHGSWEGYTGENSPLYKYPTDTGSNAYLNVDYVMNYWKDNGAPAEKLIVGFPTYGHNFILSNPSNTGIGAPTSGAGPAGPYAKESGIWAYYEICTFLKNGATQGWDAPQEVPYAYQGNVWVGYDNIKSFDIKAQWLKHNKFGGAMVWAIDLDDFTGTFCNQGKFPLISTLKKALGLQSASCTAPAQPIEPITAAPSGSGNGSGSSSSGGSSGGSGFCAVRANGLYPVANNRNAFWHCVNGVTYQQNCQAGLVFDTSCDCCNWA

Molecular target: human acidic mammalian chitinase (AMCase), full length (human) (UniProt Q9BZP6)
Assay: ELISA; ELISA on recombinant hAMCase; OD read at 62.5 ng/ml (down to 1000 ng/ml for +/-)

binding: no binding
B1: Z8 (antibody, V domains shown)
VH: EVQLLESGGGLVQPGGSLRLSCAASGFTFSPYLMWWVRQAPGKGLEWVSYISSSGGYTSYADSVKGRFTISRDNSKNTLYLQMNSLRAEDTAMYYCARMYYYDSSGYPSFDYWGQGTLVTVSS
VL: QSALTQPPSASGTPGQRVTISCSGSGSNIGSNTVNWYQQLPGTAPKLLIYSSNQRPSGVSDRFSGSKSVASASLAINGLQSEDEADYYCAGWDDSLNGPVFGGGTKLTVL
